This is one part of the list. Further columns of the screen follow, without active or inactive calls. The list favours compounds with an active or inconclusive main result. Potencies come from curve fits of mixed quality, noted in brackets.
Assay: qHTS Assay for Lipid Storage Modulators in Drosophila S3 Cells;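 for cell number change: cells counted by Cell Tracker Red CMTPX staining in the red channel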
Conditions: BODIPY lipid droplet fluorescence, 18-24 h; for cell number change: measured here: cell count max response, cells fed with added oleic acid
Method in brief: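 Drosophila S3 cells got compounds at several concentrations plus oleic acid (400 uM solution). Laser-scanning cytometry with 488 nm excitation read lipid droplets at 500-530 nm and cells at 575-640 nm. Percent activity was relative to 20 uM Triacsin C.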

[1] = measured here: cell number channel AC50, cells fed with added oleic acid
[2] = measured here: lipid fluorescence (Fed channel) AC50, cells fed with added oleic acid

SMILES	cell number change [%]	AC50 [1]	AC50 [2]
Cn1c(CCNC(=O)c2cccs2)n[nH]c1=S	-16.9	0.651 µM [falling, full curve, poor fit]	0.651 µM [falling, full curve, poor fit]
CN1CCN(CCCNC(=O)c2ccc3c(=O)n(CCc4ccccc4)c(=O)[nH]c3c2)CC1	-4.05		0.58 µM [rising, single point]
Cc1c(OCC(=O)NCc2ccncc2)ccc2c3c(c(=O)oc12)CCC3	-2.36		6.51 µM [falling, single point]
COc1ccc(C(C)=O)cc1COc1cccc2c1OC(C)(C)C2	161	23.1 µM [rising, partial curve]	
COc1ccc(OCc2cc(C(=O)N(C)C3CCOC3)no2)c(Cl)c1 (configuration not stated)	-15.9		29.1 µM [falling, single point]
O=C(NNC1=Nc2ccccc2SC1)c1ccc(Cl)cc1	-30.6		16.4 µM [falling, single point]
N#CCC(=O)N/N=C/c1cn(Cc2ccc(Cl)cc2Cl)c2ccccc12	-24.1		7.31 µM [falling, partial curve]
O=C(CN1CCN(S(=O)(=O)N2CCOCC2)CC1)Nc1cc(Cl)ccc1Cl	23.1	5.8 µM [rising, single point]	1.16 µM [falling, partial curve, poor fit]
C=CCC(=O)N(CC)CC1CCCN(CCc2cccc(F)c2)C1 (configuration not stated)	15.7		6.51 µM [rising, single point]
CC(=O)OCCCCON1C(=O)c2ccccc2C1=O	-14.2		3.66 µM [falling, full curve, poor fit]
CC1(C)Oc2ccc3ccc(=O)oc3c2/C(=C/Nc2ccc(O)cc2)C1=O	-45.6	14.6 µM [falling, partial curve, poor fit]	29.1 µM [falling, partial curve, poor fit]
CCOc1ncc(S(=O)(=O)N2CCN(CC)CC2)cc1C(=O)O	1.75		
O=C(O)c1cc(Cl)c(Cl)cc1C(=O)N1CCOCC1	-0.214		4.61 µM [falling, partial curve]
COc1ccccc1-c1nnc(SC/C(O)=C(\C#N)c2nc3ccccc3[nH]2)n1C1CCCCC1	5.33		4.11 µM [rising, single point]
COc1cc2c(cc1OC)-c1nnnn1C(C)(C)C2		0.411 µM [rising, partial curve, poor fit]	
COc1ccc(-c2csc(C3=C(O)CN(C(C)C)C3=N)n2)cc1OC	-11.3		
C/C(=C\C(=S)Nc1ccccc1)Nc1cccc2ccccc12	-8.45		29.1 µM [falling, single point]
CC(=O)c1cc2c(cc1NC(=O)c1ccccc1C)OCO2	46.3	13 µM [rising, partial curve]	14.6 µM [rising, partial curve, poor fit]
COc1ccc(CC(=O)N/N=C/c2ccc(-c3ccc(F)cc3)o2)cc1OC	-69.5		1.46 µM [falling, partial curve]
Cc1cc(C)cc(N(CC(=O)Nc2ccc(C(F)(F)F)cc2)S(=O)(=O)c2c(C)[nH]c(=O)[nH]c2=O)c1	-56.8	29.1 µM [falling, single point]	29.1 µM [rising, single point]

17 successive compounds from above, quoted:
SMILES	cell number change [%]	AC50 [1]	AC50 [2]
COc1ccc(C(C)=O)cc1COc1cccc2c1OC(C)(C)C2	161	23.1 µM [rising, partial curve]	
COc1ccc(OCc2cc(C(=O)N(C)C3CCOC3)no2)c(Cl)c1 (configuration not stated)	-15.9		29.1 µM [falling, single point]
O=C(NNC1=Nc2ccccc2SC1)c1ccc(Cl)cc1	-30.6		16.4 µM [falling, single point]
N#CCC(=O)N/N=C/c1cn(Cc2ccc(Cl)cc2Cl)c2ccccc12	-24.1		7.31 µM [falling, partial curve]
O=C(CN1CCN(S(=O)(=O)N2CCOCC2)CC1)Nc1cc(Cl)ccc1Cl	23.1	5.8 µM [rising, single point]	1.16 µM [falling, partial curve, poor fit]
C=CCC(=O)N(CC)CC1CCCN(CCc2cccc(F)c2)C1 (configuration not stated)	15.7		6.51 µM [rising, single point]
CC(=O)OCCCCON1C(=O)c2ccccc2C1=O	-14.2		3.66 µM [falling, full curve, poor fit]
CC1(C)Oc2ccc3ccc(=O)oc3c2/C(=C/Nc2ccc(O)cc2)C1=O	-45.6	14.6 µM [falling, partial curve, poor fit]	29.1 µM [falling, partial curve, poor fit]
CCOc1ncc(S(=O)(=O)N2CCN(CC)CC2)cc1C(=O)O	1.75		
O=C(O)c1cc(Cl)c(Cl)cc1C(=O)N1CCOCC1	-0.214		4.61 µM [falling, partial curve]
COc1ccccc1-c1nnc(SC/C(O)=C(\C#N)c2nc3ccccc3[nH]2)n1C1CCCCC1	5.33		4.11 µM [rising, single point]
COc1cc2c(cc1OC)-c1nnnn1C(C)(C)C2		0.411 µM [rising, partial curve, poor fit]	
COc1ccc(-c2csc(C3=C(O)CN(C(C)C)C3=N)n2)cc1OC	-11.3		
C/C(=C\C(=S)Nc1ccccc1)Nc1cccc2ccccc12	-8.45		29.1 µM [falling, single point]
CC(=O)c1cc2c(cc1NC(=O)c1ccccc1C)OCO2	46.3	13 µM [rising, partial curve]	14.6 µM [rising, partial curve, poor fit]
COc1ccc(CC(=O)N/N=C/c2ccc(-c3ccc(F)cc3)o2)cc1OC	-69.5		1.46 µM [falling, partial curve]
Cc1cc(C)cc(N(CC(=O)Nc2ccc(C(F)(F)F)cc2)S(=O)(=O)c2c(C)[nH]c(=O)[nH]c2=O)c1	-56.8	29.1 µM [falling, single point]	29.1 µM [rising, single point]

Further entries

SMILES	cell number change [%]	AC50 [1]	AC50 [2]
Cc1cc(N2CCC(C)CC2)nc2cccc(O)c12	42	29.1 µM [rising, single point]	0.164 µM [falling, full curve, poor fit]
COc1ccc(CCNc2nc(=O)[nH]nc2C)cc1OC	-0.13		
Cc1cc(C)cc(NC(=S)NCCCN2CCOCC2)c1	11.3		
Cc1ccccc1NS(=O)(=O)c1cc(C(=O)Nc2cccc([N+](=O)[O-])c2)ccc1C	0.635		1.3 µM [rising, partial curve]
COC(=O)CN1C(=O)C(O)(CC(=O)c2ccc(Br)cc2)c2ccccc21 (configuration not stated)	-52.4	0.58 µM [falling, full curve]	2.91 µM [falling, full curve]
CCN(C(=O)CN1C(=O)S/C(=C\c2ccccc2OC)C1=O)C1CCS(=O)(=O)C1 (configuration not stated)	-6.87		16.4 µM [rising, partial curve]
Cc1ccc2cc3c(NC(=O)C4CCCO4)nn(CC(C)C)c3nc2c1 (configuration not stated)	3.57		4.11 µM [rising, single point]
C=Cc1ccc2c(c1)N(C)C(=C)S2	-99		
CNc1nc(OCC(F)(F)F)nc(N2CCOCC2)n1	5.98		
CCCCn1c(N)c(N(CCC(C)C)C(=O)COC(=O)c2ccc(CC)cc2)c(=O)[nH]c1=O			29.1 µM [falling, single point]
CCN(CC)CCNc1ncnc2c1sc1nc(N3CCOCC3)c3c(c12)CCCC3	-28.7		2.06 µM [falling, single point]
NC(=O)c1ccccc1OCc1nnc(-c2ccccc2Br)o1	7.92		0.058 µM [rising, full curve, poor fit]
C/C(=N\NC(=O)c1cc(-c2ccco2)nc2ccccc12)c1cccnc1		0.103 µM [rising, partial curve, poor fit]	
Cc1ccc(NC(=O)Cc2n[nH]c(=S)n2C)cc1	-1.18		
CCCCn1c(=O)[nH]c(=O)c2c1nc(-c1ccc(CC)c([N+](=O)[O-])c1)n2C	69.4	25.9 µM [rising, single point]	
Cc1cc(CNC(=O)C2CCC(=O)N(Cc3ccccc3F)C2)nn1C (configuration not stated)	-6.23		6.51 µM [rising, single point]
N#Cc1ccc(C(=O)Nc2nc(-c3cccs3)c(C(=O)C(F)(F)F)s2)cc1	-47	16.4 µM [falling, partial curve]	18.4 µM [falling, partial curve]
Cc1ncc(CO)c(/C=N/NC(=S)Nc2ccc(F)cc2)c1O	-4.58		32.6 µM [falling, single point]
COc1ccc(Nc2ccc(N3C(=O)CCCC3=O)cc2[N+](=O)[O-])c(OC)c1	147	14.6 µM [rising, partial curve]	3.66 µM [rising, full curve]
CCN(CC)c1ccc2c(c1)OC(N)=C(C#N)C2c1cccnc1 (configuration not stated)	38.9	29.1 µM [rising, partial curve, poor fit]	

SMILES	cell number change [%]	AC50 [1]	AC50 [2]
CC(C)NC(=O)COc1ccc(S(=O)(=O)N2CCOCC2)cc1	-41.8	0.184 µM [falling, full curve]	
CC(C)(C)c1ccc(C(=O)NC(=S)Nc2nc3c(s2)CCCC3)cc1	4.78		6.51 µM [falling, single point]
Cc1ccc(NC(=O)N2CCC(c3nc4c(nnn4Cc4c(F)cccc4Cl)c(=O)[nH]3)CC2)cc1	127	10.3 µM [rising, partial curve]	2.06 µM [rising, partial curve]
COc1ccccc1N1CC(C(=O)OCC(=O)Nc2c(C)cccc2C)CC1=O (configuration not stated)	19.7		3.66 µM [rising, full curve]
O=C(Nc1ccc(Cn2cccn2)cc1)c1ccc(COc2cccc(Br)c2)cc1	51.8	3.26 µM [rising, full curve, poor fit]	2.59 µM [rising, partial curve]
CCN1C(=O)c2cccc3c(NS(=O)(=O)c4ccc(NC(C)=O)cc4)ccc1c23	-2.51	2.91 µM [rising, single point]	
O=C(NCc1ccco1)C1Cc2ccccc2CN1C(=O)c1ccco1 (configuration not stated)		0.461 µM [falling, single point]	
Cc1cc(C)cc(N(CC(=O)NCc2ccc3c(c2)OCO3)C(=O)CCC(=O)Nc2ccccn2)c1	28.3		5.8 µM [rising, partial curve]
CCOC(=O)CN1C(=O)S/C(=C/c2ccc3c(c2)n(C)c(=O)n3C)C1=O	-40.7		29.1 µM [falling, single point]
O=C(Nc1cccc(-c2csc(Nc3cccc(C(F)(F)F)c3)n2)c1)c1ccccc1	-0.982		0.164 µM [rising, full curve]
CC(C)C(NC(=O)c1ccccc1)C(=O)NC1CCCc2ccccc21 (configuration not stated)	-36.6		
Cc1ccc(C(O)CN2C3=NCCN3c3ccccc32)cc1 (configuration not stated)	-10.9	0.651 µM [falling, single point]	0.116 µM [falling, full curve, poor fit]
CCOC(=O)N1CCN(C(=O)c2c(N)no[n+]2[O-])CC1	147	0.731 µM [rising, single point]	29.1 µM [rising, single point]
CCOC(=O)C1(C(C)(C)CC)CC(CSc2nc3ccccc3[nH]2)OC1=O (configuration not stated)	-22.4		29.1 µM [falling, single point]
CC(=O)Nc1ccc(C(=O)OCC(=O)NCc2cccs2)cc1	-0.933	0.00651 µM [falling, full curve, poor fit]	0.00731 µM [falling, full curve, poor fit]
Cn1cc(Cl)c(-c2n[nH]c(=S)n2-c2ccccc2)n1	0.804		3.66 µM [rising, single point]
Cn1nc(C(=O)Nc2ccc(S(=O)(=O)N3CCCC3)cc2)ccc1=O	8.64		6.51 µM [rising, single point]
COc1ccc(-c2cn(-c3ccc(C)cc3C)c(=O)[nH]2)cc1OC	-22.6		

Reference: PubChem BioAssay AID2685 (National Center for Advancing Translational Sciences (NCATS), 2010)
